# The supplement of paper PMC8728848
# The other results are listed elsewhere or left out.
# B1: SspB A3vp1 (Streptococcus gordonii), Q54186 (protein)
# chain: MTNEADYQAKLAAYQTELARVQKANADAKATYEKAVEDNKAKNAAIKAENEEIKQRNAVAKTDYEAKLAKYEADLAKYKKEFAAYTAALAEAESKKKQDGYLSEPRSQSLNFKSEPNAIRTIDSSVHQYGQQELDALVKSWGISPTNPDRKKSRAYSYFNAINSNNTYAKLVLEKDKPVDVTYTGLKNSSFNGKKISKVVYTYTLKETGFNDGTKMTMFASSDPTVTAWYNDYFTSTNINVKVKFYDEEGQLMNLTGGLVNFSSLNRGNGSGAIDKDAIESVRNFNGRYIPISGSSIKIHENNSAYADSSNAEKSLGARWNTSEWDTTSSPNNWYGAIVGEITQSEISFNMASSKSGNIWFAFNSNINAIGVPTKPVAPTAPTQPMYETEKPLEPAPVAPSYENEPTPPVKTPDQPEPSKPAAALEHHHHHH
# Columns and labels:
# Test in all cases: glycan array binding signal (z-score within array); higher = stronger binding
# Settings in all cases: glycan notation: IUPAC condensed, linker removed
# [1] = target: Man(a1-2)Man(a1-3)[Man(a1-2)Man(a1-6)]Man(a1-6)[Man(a1-2)Man(a1-2)Man(a1-3)]Man
# Procedure, shortened: (§1)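 Glycan array data were curated from 3228 arrays in the Consortium for Functional Glycomics database and kept only where the protein sequence was available. Glycan names were converted to IUPAC-condensed notation, and columns mapping to the same glycan were averaged. The binding signal is a within-array Z-score, averaged across arrays of the same protein sequence at different concentrations or buffers and across linkers. Negative Z-scores can be read as non-binding.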
# [2] = target: Man(a1-2)Man(a1-3)[Man(a1-2)Man(a1-6)]Man(a1-6)[Man(a1-2)Man(a1-2)Man(a1-3)]Man(b1-4)GlcNAc(b1-4)GlcNAc
# Procedure, shortened: as §1
# [3] = target: Man(a1-2)Man(a1-3)[Man(a1-6)]Man(a1-6)[Man(a1-2)Man(a1-3)]Man(b1-4)GlcNAc(b1-4)GlcNAc
# Procedure, shortened: as §1
# [4] = target: Man(a1-2)Man(a1-6)[Man(a1-3)]Man(a1-6)[Man(a1-2)Man(a1-2)Man(a1-3)]Man
# Procedure, shortened: as §1
# [5] = target: Man(a1-2)Man(a1-6)[Man(a1-3)]Man(a1-6)[Man(a1-2)Man(a1-2)Man(a1-3)]Man(b1-4)GlcNAc(b1-4)GlcNAc
# Procedure, shortened: as §1
# Man(a1-3)[Man(a1-6)]Man = target: Man(a1-3)[Man(a1-6)]Man
# Procedure, shortened: as §1
# [6] = target: Man(a1-3)[Man(a1-6)]Man(a1-6)[Man(a1-2)Man(a1-3)]Man(b1-4)GlcNAc(b1-4)GlcNAc
# Procedure, shortened: as §1
# [7] = target: Man(a1-3)[Man(a1-6)]Man(a1-6)[Man(a1-3)]Man
# Procedure, shortened: as §1
# [8] = target: Man(a1-3)[Man(a1-6)]Man(a1-6)[Man(a1-3)]Man(b1-4)GlcNAc(b1-4)GlcNAc
# Procedure, shortened: as §1
# [9] = target: Man(a1-3)[Man(a1-6)]Man(b1-4)GlcNAc(b1-4)GlcNAc
# Procedure, shortened: as §1
# [10] = target: Man(a1-3)[Man(a1-6)]Man(b1-4)GlcNAc(b1-4)[Fuc(a1-6)]GlcNAc
# Procedure, shortened: as §1
# Man(a1-6)Man = target: Man(a1-6)Man
# Procedure, shortened: as §1
# Man(b1-4)GlcNAc = target: Man(b1-4)GlcNAc
# Procedure, shortened: as §1
# MurNAc(b1-4)GlcNAc = target: MurNAc(b1-4)GlcNAc
# Procedure, shortened: as §1
# Neu5Ac(a2-3)Gal = target: Neu5Ac(a2-3)Gal
# Procedure, shortened: as §1
# [11] = target: Neu5Ac(a2-3)Gal(b1-3)GalNAc
# Procedure, shortened: as §1
# [12] = target: Neu5Ac(a2-3)Gal(b1-3)GalNAc(b1-3)Gal(a1-4)Gal(b1-4)Glc
# Procedure, shortened: as §1
# [13] = target: Neu5Ac(a2-3)Gal(b1-3)GalNAc(b1-4)[Neu5Ac(a2-3)]Gal(b1-4)Glc
# Procedure, shortened: as §1
# [14] = target: Neu5Ac(a2-3)Gal(b1-3)GalNAc(b1-4)[Neu5Ac(a2-8)Neu5Ac(a2-3)]Gal(b1-4)Glc
# Procedure, shortened: as §1
# [15] = target: Neu5Ac(a2-3)Gal(b1-3)GalNAc6S
# Procedure, shortened: as §1
# [16] = target: Neu5Ac(a2-3)Gal(b1-3)GlcNAc
# Procedure, shortened: as §1
# [17] = target: Neu5Ac(a2-3)Gal(b1-3)GlcNAc(b1-2)Man
# Procedure, shortened: as §1
# [18] = target: Neu5Ac(a2-3)Gal(b1-3)GlcNAc(b1-2)Man(a1-3)[GlcNAc(b1-4)][Neu5Ac(a2-3)Gal(b1-3)GlcNAc(b1-2)Man(a1-6)]Man(b1-4)GlcNAc(b1-4)GlcNAc
# Procedure, shortened: as §1
# [19] = target: Neu5Ac(a2-3)Gal(b1-3)GlcNAc(b1-2)Man(a1-3)[Neu5Ac(a2-3)Gal(b1-3)GlcNAc(b1-2)Man(a1-6)]Man(b1-4)GlcNAc(b1-4)GlcNAc
# Procedure, shortened: as §1
# [20] = target: Neu5Ac(a2-3)Gal(b1-3)GlcNAc(b1-3)Gal(b1-3)GlcNAc
# Procedure, shortened: as §1
# [21] = target: Neu5Ac(a2-3)Gal(b1-3)GlcNAc(b1-3)Gal(b1-4)GlcNAc
# Procedure, shortened: as §1
# [22] = target: Neu5Ac(a2-3)Gal(b1-3)GlcNAc(b1-3)GalNAc
# Procedure, shortened: as §1
# [23] = target: Neu5Ac(a2-3)Gal(b1-3)GlcNAc(b1-4)Gal(b1-4)Glc
# Procedure, shortened: as §1
# [24] = target: Neu5Ac(a2-3)Gal(b1-3)GlcNAc(b1-6)GalNAc
# Procedure, shortened: as §1
# [25] = target: Neu5Ac(a2-3)Gal(b1-3)GlcNAc6S
# Procedure, shortened: as §1
# [26] = target: Neu5Ac(a2-3)Gal(b1-3)[Fuc(a1-4)]GlcNAc
# Procedure, shortened: as §1
# [27] = target: Neu5Ac(a2-3)Gal(b1-3)[Fuc(a1-4)]GlcNAc(b1-3)Gal(b1-3)[Fuc(a1-4)]GlcNAc
# Procedure, shortened: as §1
# [28] = target: Neu5Ac(a2-3)Gal(b1-3)[Fuc(a1-4)]GlcNAc(b1-3)Gal(b1-4)[Fuc(a1-3)]GlcNAc
# Procedure, shortened: as §1
# [29] = target: Neu5Ac(a2-3)Gal(b1-3)[GlcNAc(b1-6)]GalNAc
# Procedure, shortened: as §1
# [30] = target: Neu5Ac(a2-3)Gal(b1-3)[Neu5Ac(a2-6)]GalNAc
# Procedure, shortened: as §1
# [31] = target: Neu5Ac(a2-3)Gal(b1-3)[Neu5Ac(a2-6)]GlcNAc(b1-3)[Fuc(a1-3)[Gal(b1-4)]GlcNAc(b1-6)]Gal(b1-4)Glc
# Procedure, shortened: as §1
# [32] = target: Neu5Ac(a2-3)Gal(b1-3)]Neu5Ac(a2-3)Gal(b1-4)]GlcNAc
# Procedure, shortened: as §1
binder,measurement,setting,value
B1,glycan array binding signal (z-score),[1],-0.554
same,glycan array binding signal (z-score),[2],0.39
same,glycan array binding signal (z-score),[3],-0.444
same,glycan array binding signal (z-score),[4],-0.366
same,glycan array binding signal (z-score),[5],-0.444
same,glycan array binding signal (z-score),Man(a1-3)[Man(a1-6)]Man,-0.769
same,glycan array binding signal (z-score),[6],0.818
same,glycan array binding signal (z-score),[7],-0.128
same,glycan array binding signal (z-score),[8],0.611
same,glycan array binding signal (z-score),[9],-0.826
same,glycan array binding signal (z-score),[10],-0.528
same,glycan array binding signal (z-score),Man(a1-6)Man,-0.025
same,glycan array binding signal (z-score),Man(b1-4)GlcNAc,-0.983
same,glycan array binding signal (z-score),MurNAc(b1-4)GlcNAc,-0.658
same,glycan array binding signal (z-score),Neu5Ac(a2-3)Gal,-0.167
same,glycan array binding signal (z-score),[11],-1.1
same,glycan array binding signal (z-score),[12],-0.496
same,glycan array binding signal (z-score),[13],0.149
same,glycan array binding signal (z-score),[14],0.141
same,glycan array binding signal (z-score),[15],-0.287
same,glycan array binding signal (z-score),[16],-0.907
same,glycan array binding signal (z-score),[17],0.479
same,glycan array binding signal (z-score),[18],0.06
same,glycan array binding signal (z-score),[19],0.14
same,glycan array binding signal (z-score),[20],0.005
same,glycan array binding signal (z-score),[21],-0.489
same,glycan array binding signal (z-score),[22],-0.616
same,glycan array binding signal (z-score),[23],-0.254
same,glycan array binding signal (z-score),[24],0.486
same,glycan array binding signal (z-score),[25],-1.23
same,glycan array binding signal (z-score),[26],-0.547
same,glycan array binding signal (z-score),[27],-0.099
same,glycan array binding signal (z-score),[28],0.472
same,glycan array binding signal (z-score),[29],-1.02
same,glycan array binding signal (z-score),[30],0.286
same,glycan array binding signal (z-score),[31],-0.752
same,glycan array binding signal (z-score),[32],-1.3

# Reprinted from above for reference:
binder,measurement,setting,value
B1,glycan array binding signal (z-score),[14],0.141
same,glycan array binding signal (z-score),[15],-0.287
same,glycan array binding signal (z-score),[16],-0.907
